According to patent US20100021386A1:
These are yes or no findings as the source states them, for the method shown. Some results given as binding are weak or reduced against the parent protein; the word gives no strength.

Amino acid sequences for entries named in this document (tags omitted). Residues count along the entry.
UniProt P24062, residues 31-1370: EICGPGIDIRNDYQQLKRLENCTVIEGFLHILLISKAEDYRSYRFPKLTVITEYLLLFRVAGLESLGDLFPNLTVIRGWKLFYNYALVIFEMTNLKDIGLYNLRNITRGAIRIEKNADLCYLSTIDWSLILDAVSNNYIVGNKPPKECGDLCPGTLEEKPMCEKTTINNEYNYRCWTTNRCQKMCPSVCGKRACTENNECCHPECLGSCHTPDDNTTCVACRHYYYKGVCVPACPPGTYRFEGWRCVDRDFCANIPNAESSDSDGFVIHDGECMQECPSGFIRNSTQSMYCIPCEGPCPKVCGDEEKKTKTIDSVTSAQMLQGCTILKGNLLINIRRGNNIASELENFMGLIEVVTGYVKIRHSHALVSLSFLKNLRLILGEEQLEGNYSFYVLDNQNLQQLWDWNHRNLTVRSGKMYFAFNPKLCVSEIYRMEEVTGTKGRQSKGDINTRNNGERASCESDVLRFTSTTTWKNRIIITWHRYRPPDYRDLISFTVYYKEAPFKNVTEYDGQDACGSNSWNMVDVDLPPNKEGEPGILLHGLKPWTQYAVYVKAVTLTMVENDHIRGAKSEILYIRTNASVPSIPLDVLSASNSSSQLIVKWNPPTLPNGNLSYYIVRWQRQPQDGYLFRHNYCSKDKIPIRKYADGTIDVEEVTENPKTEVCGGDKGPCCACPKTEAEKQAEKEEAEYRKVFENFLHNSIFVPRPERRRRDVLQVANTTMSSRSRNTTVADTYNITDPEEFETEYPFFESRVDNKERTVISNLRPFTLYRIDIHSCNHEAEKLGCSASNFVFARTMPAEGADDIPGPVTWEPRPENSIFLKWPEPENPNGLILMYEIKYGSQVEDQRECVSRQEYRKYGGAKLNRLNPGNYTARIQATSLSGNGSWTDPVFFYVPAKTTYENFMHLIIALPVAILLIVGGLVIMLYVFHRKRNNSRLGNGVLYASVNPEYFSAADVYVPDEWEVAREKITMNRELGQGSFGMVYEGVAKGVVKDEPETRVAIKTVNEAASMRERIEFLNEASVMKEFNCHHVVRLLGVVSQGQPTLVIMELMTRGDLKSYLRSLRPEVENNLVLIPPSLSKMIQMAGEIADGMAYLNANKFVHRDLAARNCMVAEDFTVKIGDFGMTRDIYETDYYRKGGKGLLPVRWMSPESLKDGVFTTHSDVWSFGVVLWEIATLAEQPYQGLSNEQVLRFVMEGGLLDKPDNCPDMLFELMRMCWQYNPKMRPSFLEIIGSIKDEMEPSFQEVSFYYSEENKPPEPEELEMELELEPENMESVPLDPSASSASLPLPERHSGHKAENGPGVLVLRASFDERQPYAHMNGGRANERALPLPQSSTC
UniProt P05019, residues 49-118: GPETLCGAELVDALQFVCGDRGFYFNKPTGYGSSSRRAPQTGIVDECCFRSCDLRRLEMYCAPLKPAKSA

Target: IGF-I receptor (Long Evans rat liver) (rat) (UniProt P24062)
Assay: competitive equilibrium binding of [125I] ligand to rat liver homogenate, PEG precipitation (Example 1)

Q: How did the binding turn out when “Human recombinant [125I] IGF-I (from UniProt P05019 49-118) (ligand)” was run?
A: Its binding is “binds”.
